Small-molecule microarray binding calls

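Each compound is printed as two spots on a slide made to bind it covalently, so it has no test concentration; the read-out is fluorescence of the bound, labelled oligonucleotide. For the PreQ1, TPP and SAM-II riboswitches the laboratory earlier reported (doi:10.1038/s41467-019-09493-3) 1 µM RNA, 2 h, and a rule that included a mean Z-score above 3 (spot signal-to-noise against the whole library), a score well above that on a control array, and duplicate spots agreeing (coefficient of variation under 100). The data file gives only the calls; its cut-offs may differ, and compounds hitting several targets are kept. A missing hit is not proof of no binding, and a hit is not a measured affinity.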 “active” means called a hit, “inactive” means screened and not called a hit. Compounds were drawn at random from those tested, without regard to their results. A target missing from an entry has no call listed here.

Targets (5′ to 3′):
T1: TPP riboswitch RNA three-way junction, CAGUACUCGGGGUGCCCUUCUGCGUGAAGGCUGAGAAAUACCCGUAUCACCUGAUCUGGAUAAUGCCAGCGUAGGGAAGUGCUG. About 160 hits among about 24,000 compounds.
T2: PreQ1 riboswitch RNA pseudoknot, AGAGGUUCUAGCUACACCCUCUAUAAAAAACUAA. From B. subtilis. About 170 hits among about 24,000 compounds.
T3: SAM-II riboswitch RNA pseudoknot, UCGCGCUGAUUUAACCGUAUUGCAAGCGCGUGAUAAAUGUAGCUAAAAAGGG. About 200 hits among about 21,000 compounds.

For Cc1ccccc1[C@@H]1CN(Cc2cccc(CCN)c2)C[C@H]1C(=O)O the calls were T1: inactive; T2: inactive; T3: inactive.
For CC1=C(c2ccc(C(C)C)cc2)S(=O)(=O)N=C1Nc1cccnc1 the calls were T1: inactive; T2: inactive.
For CC1(C)CCCC(NCCSc2cnn[nH]2)C1 (configuration not stated) the calls were T1: inactive; T2: inactive; T3: inactive.
For N#CC1=C(N)OC2=C(C(=O)CCC2)C1c1ccc2c(c1)OCO2 (configuration not stated) the calls were T1: inactive; T2: inactive; T3: inactive.
For CC(C)Cc1cc(CNCc2cn(CCC(N)=O)c3ccccc23)no1 the calls were T1: inactive; T2: inactive; T3: inactive.
For COc1cc(C2CC(=O)Nc3nc(N)[se]c32)cc(OC)c1OC (configuration not stated) the calls were T1: inactive; T2: inactive; T3: inactive.
For CC(=O)Nc1ccc(S(=O)(=O)N/N=c2/sc3ccccc3n2C)cc1N the calls were T1: inactive; T2: inactive; T3: inactive.
For COc1ccc2[nH]cc(CCNC(C)=O)c2c1 the calls were T1: inactive; T2: inactive; T3: inactive.
For CC(C)=CC(=O)N1C[C@H](C(C)C)[C@@H](N)C1 the calls were T1: inactive; T2: inactive; T3: inactive.
For COc1ccccc1-c1cc2nc(C)cc(NCC(C)C)n2n1 the calls were T1: inactive; T2: inactive.
For CCCNc1ncccc1-c1nc(-c2ccc(C)cc2)no1 the calls were T1: inactive; T2: inactive.
For O=[N+]([O-])c1ccc2c(c1)S(=O)c1ccccc1-2 (configuration not stated) the calls were T1: inactive; T2: inactive; T3: inactive.
For Cc1c(NCc2ccc3c(c2)n(C)c(=O)n3C)cccc1C(=O)O the calls were T1: inactive; T2: inactive.
For O=c1cccc2n1CC1CC2CN(c2nc(NCCC3=CCCCC3)nc(N3CCOCC3)n2)C1 (configuration not stated) the calls were T1: inactive; T2: inactive; T3: inactive.
For N#Cc1c(N)nc2c(c1-c1ccc(O)cc1Cl)N1CCC2CC1 the calls were T1: inactive; T2: inactive; T3: inactive.
For Nc1c(-c2nc(-c3ccccc3)no2)nnn1-c1cccc(Cl)c1 the calls were T1: inactive; T2: inactive.
For COc1cccc([C@H]2CN(C(=O)Cc3ccc(O)c(Cl)c3)C[C@@H]2N)c1 the calls were T1: inactive; T2: inactive; T3: inactive.
For C[C@H](Cc1ccc(O)c(O)c1)[C@@H](C)Cc1ccc(O)c(O)c1 the calls were T1: inactive; T2: inactive; T3: inactive.
For CCOC(=O)c1cnc2c(-c3ccccc3)c(COc3ccccc3)nn2c1N the calls were T1: inactive; T2: inactive; T3: inactive.
For Cn1c(NCCCO)nc2c(c1=O)C1(CCCCC1)Cc1ccccc1-2 the calls were T1: inactive; T2: inactive; T3: inactive.

Repeated from the top, 2 entries:

{"structure": "Cc1ccccc1[C@@H]1CN(Cc2cccc(CCN)c2)C[C@H]1C(=O)O", "T1": "inactive", "T2": "inactive", "T3": "inactive"}
{"structure": "CC1=C(c2ccc(C(C)C)cc2)S(=O)(=O)N=C1Nc1cccnc1", "T1": "inactive", "T2": "inactive"}

Data from the ROBIN nucleic acid binder screens, doi:10.1002/anie.202211358.